{"sequences": {"note": "Protein sequences, listed by entry. Tags and fused reporters are not part of them. Lines headed by an entry give the natural chain unless they say otherwise; changes in a name come on top. Chains listed by the source or under a name are the forms on record and can include a tag or linker.", "cynomolgus PD-L1 (cynomolgus (Macaca fascicularis)) (G7PSE7, form named)": "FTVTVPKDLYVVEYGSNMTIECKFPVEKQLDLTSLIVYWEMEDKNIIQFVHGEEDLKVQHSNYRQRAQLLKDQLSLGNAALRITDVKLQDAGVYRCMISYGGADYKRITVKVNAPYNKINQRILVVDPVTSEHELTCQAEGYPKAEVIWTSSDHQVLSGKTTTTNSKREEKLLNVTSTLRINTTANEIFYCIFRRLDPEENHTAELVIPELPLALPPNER"}, "source": "patent US20210230288A1", "binders": {"B1": {"name": "CAR comprising the DBDpp pb04 (receptor, not shown: small tags and cut ends)", "chain": "MGSWYEFTVRLEAIHERLKALGGSEAELAAFEKEIAAFESELQAYKGKGNPEVEILRDDAAFIRRFLQAYRHN"}}, "target": "cynomolgus PD-L1 (cynomolgus (Macaca fascicularis)) (UniProt G7PSE7)", "assay": "flow cytometry (FIG. 16B)", "note": "No constants are given. Whether binding was seen depends on the method and setting. Some binding calls cover weakened binding; strength is not graded here."}
{"binder": "B1", "values": [{"measurement": "binding", "value": "binds"}]}
